From PubChem BioAssay (EPA / NIEHS)
Inconclusive results, whose numbers are uncertain, are shown with a selection of clear calls. Potencies beside an inconclusive call are fits to weak or partial responses and may not hold up. Activity calls are given as the source filed them. Rule for the calls: active = hit-call score of the fitted dose curve at least 0.9, where 1 is the maximum; inconclusive = response in the unintended direction; inactive = score below 0.9.

Chains of the proteins cited; added tags and fusions are not shown.
UniProt P33261, whole entry, looked up: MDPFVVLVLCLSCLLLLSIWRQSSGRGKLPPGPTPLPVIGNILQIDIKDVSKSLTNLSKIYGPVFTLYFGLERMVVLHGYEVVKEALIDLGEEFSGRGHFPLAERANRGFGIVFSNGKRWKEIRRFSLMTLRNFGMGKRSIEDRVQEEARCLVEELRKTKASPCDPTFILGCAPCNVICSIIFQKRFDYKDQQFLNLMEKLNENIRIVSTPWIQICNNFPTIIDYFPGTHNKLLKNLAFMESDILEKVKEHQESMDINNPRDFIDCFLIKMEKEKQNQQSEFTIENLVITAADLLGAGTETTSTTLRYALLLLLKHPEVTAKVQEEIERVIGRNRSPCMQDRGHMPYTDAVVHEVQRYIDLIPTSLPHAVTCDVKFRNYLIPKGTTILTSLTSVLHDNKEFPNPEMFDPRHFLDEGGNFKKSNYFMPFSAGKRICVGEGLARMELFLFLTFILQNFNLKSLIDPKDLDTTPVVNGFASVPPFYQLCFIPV

Each compound was assayed on Cytochrome P450 2C19 (Homo sapiens) (UniProt P33261) (assay: CLD_CYP2C19_6hr: CellzDirect (CLD) Gene Expression Assay for xenobiotic metabolism (CYP2C19) at 6 hours (AID 2283678)).
Protocol: CLD_6hr is a cell-based, multiplexed-readout assay that uses hepatocyte, a human liver primary cell, with measurements taken at 6 hours after chemical dosing in a 96-well plate.CLD_CYP2C19_6hr is one of 16 assay component(s) measured or calculated from the CLD_6hr assay. It is designed to make measurements of mRNA induction, a form of inducible reporter, as detected with chemiluminescence signals by Quantitative Nuclease Protection Assay (qNPA) technology.Data from the assay component CLD_CYP2C19_6hr was analyzed at the endpoint, CLD_CYP2C19_6hr, in the positive analysis fitting direction relative to DMSO as the negative control and baseline of activity. Using a type of inducible reporter, gain-of-signal activity can be used to understand changes in the reporter gene as they relate to the gene CYP2C19. Furthermore, this assay endpoint can be referred to as a primary readout. To generalize the intended target to other relatable targets, this assay endpoint is annotated to the cyp intended target family, where subfamily is xenobiotic metabolism.
Human hepatocyte cultures were treated daily for two consecutive days with fresh dosing solutions containing appropriate concentrations of the 320 ToxCast chemicals (chemical identities were blinded to CellzDirect and other ToxCast collaborators), vehicle control (0.2% DMSO), and positive control inducers as summarized in Table 1. Due to the large number of treatment groups and chemicals examined, the ToxCast chemicals were divided into two groups (spanning two independent cultures of hepatocytes from separate donor preparations (Hu778: ToxCast plates 1 and 2; Hu776: ToxCast plates 3 and 4). Each preparation of human hepatocyte cultures was treated with respective vehicle control, medium only control, set of six positive controls/reference chemicals for the five hepatic receptor pathways, and a subset of eight of the ToxCast chemicals (indoxacarb, pyrithiobac-sodium, norflurazon, cyhalofop-butyl, methomyl, thiram, acetochlor, and propiconazole). These replicate data, coupled with internal replicates designed within the blinded ToxCast chemical library, provided additional data to evaluate interindividual differences between hepatocyte preparations and their potential impact on chemical profiles.Cell morphology and integrity were evaluated using phase-contrast microscopy as an indicator of hepatocyte cell health (Tyson & Green, 1987). Cultures for each treatment group (i.e., media, vehicle [0.2% DMSO], positive control inducers [multiple concentrations], and the ToxCast chemicals [multiple concentrations]) were observed and cell morphology was assessed relative to vehicle control cultures at each harvest time point (0, 6, 24, or 48 h). […] Images were evaluated at the conclusion of the study to assess changes in cell integrity and account for the effects of chemical exposure on uncharacteristic changes in concentration-dependent gene expression profiles. The results from these determinations of apparent cytotoxicity were annotated (yes/no) alongside the corresponding qNPA data for reference.At the conclusion of each treatment period, hepatocyte cultures (96-well) were washed with 1 volume of HBSS, lysed by addition of 25 ul ArrayPlate lysis buffer (HTG, Tucson, AZ), and 70 ul/well of Denaturation Oil, denatured by incubation at 95C for 10 min, and frozen at approximately -70C until analysis by nuclease protection assay (qNPA) (Roberts et al., 2007). For qNPA analysis, cell lysates were thawed at 50C for approximately 30 min, qNPA probes were added, and samples were incubated at 95C for 10 min to begin the detection process by denaturing the target RNA, dissociating the duplexes and secondary structure hybridization. At the conclusion of the hybridization period, S1 nuclease reagent was added to each sample to digest all nonprotected nucleotides at 50C for 60-90 min. […]

| Structure (SMILES) | AC50 | outcome |
| --- | --- | --- |
| CCOC(=O)COc1cc(-n2ncc(C(F)(F)F)c(C)c2=O)c(F)cc1Cl | inconclusive: 20 µM |  |
| CC(C)(c1ccc(O)cc1)c1ccc(O)cc1 | inconclusive: 20 µM |  |
| Cc1nn(C)c(Oc2ccccc2)c1C=NOCc1ccc(C(=O)OC(C)(C)C)cc1 | inconclusive: 0.212 µM |  |
| CCOC(=O)C(C)Oc1ccc(Oc2cnc3cc(Cl)ccc3n2)cc1 (stereo unspecified) | inconclusive: 20 µM |  |
| CN(C)C(=O)Nc1ccc(Cl)c(Cl)c1 | inconclusive: 3.97 µM |  |
| CCCCOC(=O)C(C)Oc1ccc(Oc2ccc(C(F)(F)F)cn2)cc1 (stereo unspecified) | inconclusive: 20 µM |  |
| COC(=O)c1ccccc1C(=O)O |  | inactive |
| CCCCCOC(=O)COc1cc(N2C(=O)C3=C(CCCC3)C2=O)c(F)cc1Cl |  | inactive |
| c1ccc2[nH]c(-c3cscn3)nc2c1 |  | inactive |
| CSC(=O)c1cccc2nnsc12 | inconclusive: 20 µM |  |
| N#CSCSc1nc2ccccc2s1 | inconclusive: 0.375 µM |  |

Laid out differently: 2 of the compounds above.
Structure (SMILES)	AC50	outcome
Cc1nn(C)c(Oc2ccccc2)c1C=NOCc1ccc(C(=O)OC(C)(C)C)cc1	inconclusive: 0.212 µM	
CN(C)C(=O)Nc1ccc(Cl)c(Cl)c1	inconclusive: 3.97 µM	
